Laboratory results taken from the supplement of paper PMC8728848.
Some of the results follow.

How the values were obtained:
Assay in all cases: glycan array binding signal (z-score within array); higher = stronger binding
Details in all cases: glycan notation: IUPAC condensed, linker removed
[1] = target: GlcNAc(b1-3)Gal(b1-4)GlcNAc(b1-3)Gal(b1-4)GlcNAc(b1-3)Gal(b1-4)GlcNAc(b1-3)Gal(b1-4)GlcNAc(b1-2)[GlcNAc(b1-3)Gal(b1-4)GlcNAc(b1-3)Gal(b1-4)GlcNAc(b1-3)Gal(b1-4)GlcNAc(b1-3)Gal(b1-4)GlcNAc(b1-6)]Man(a1-6)[GlcNAc(b1-3)Gal(b1-4)GlcNAc(b1-3)Gal(b1-4)GlcNAc(b1-3)Gal(b1-4)GlcNAc(b1-3)Gal(b1-4)GlcNAc(b1-2)Man(a1-3)]Man(b1-4)GlcNAc(b1-4)[Fuc(a1-6)]GlcNAc
Summary of the method: (§1)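 Columns mapping to the same glycan were averaged after glycan names were converted to IUPAC-condensed notation. The data come from 3228 arrays in the Consortium for Functional Glycomics database, limited to those with an available protein sequence. Binding is reported as a within-array Z-score averaged across arrays of one protein sequence and across linkers.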

[2] = target: GlcNAc(b1-3)Gal(b1-4)GlcNAc(b1-3)Gal(b1-4)GlcNAc(b1-3)GalNAc
Summary of the method: as §1

[3] = target: GlcNAc(b1-3)Gal(b1-4)GlcNAc(b1-3)GalNAc
Summary of the method: as §1

[4] = target: GlcNAc(b1-3)Gal(b1-4)GlcNAc(b1-3)[GlcNAc(b1-3)Gal(b1-4)GlcNAc(b1-3)]GalNAc
Summary of the method: as §1

[5] = target: GlcNAc(b1-3)Gal(b1-4)GlcNAc(b1-6)[Gal(b1-3)]GalNAc
Summary of the method: as §1

[6] = target: GlcNAc(b1-3)Gal(b1-4)GlcNAc(b1-6)[GlcNAc(b1-3)Gal(b1-3)]GalNAc
Summary of the method: as §1

[7] = target: GlcNAc(b1-3)Gal(b1-4)GlcNAc(b1-6)[GlcNAc(b1-3)]Gal(b1-4)GlcNAc
Summary of the method: as §1

[8] = target: GlcNAc(b1-3)GalNAc
Summary of the method: as §1

[9] = target: GlcNAc(b1-3)Man
Summary of the method: as §1

[10] = target: GlcNAc(b1-3)[GlcNAc(b1-4)][GlcNAc(b1-6)]GlcNAc
Summary of the method: as §1

[11] = target: GlcNAc(b1-3)[GlcNAc(b1-6)]Gal(b1-4)GlcNAc
Summary of the method: as §1

[12] = target: GlcNAc(b1-3)[GlcNAc(b1-6)]GalNAc
Summary of the method: as §1

[13] = target: GlcNAc(b1-4)Gal(b1-4)GlcNAc
Summary of the method: as §1

[14] = target: GlcNAc(b1-4)GlcNAc
Summary of the method: as §1

[15] = target: GlcNAc(b1-4)GlcNAc(b1-4)GlcNAc
Summary of the method: as §1

[16] = target: GlcNAc(b1-4)GlcNAc(b1-4)GlcNAc(b1-4)GlcNAc(b1-4)GlcNAc
Summary of the method: as §1

[17] = target: GlcNAc(b1-4)GlcNAc(b1-4)GlcNAc(b1-4)GlcNAc(b1-4)GlcNAc(b1-4)GlcNAc
Summary of the method: as §1

[18] = target: GlcNAc(b1-4)[GlcNAc(b1-6)]GalNAc
Summary of the method: as §1

[19] = target: GlcNAc(b1-6)Gal(b1-4)GlcNAc
Summary of the method: as §1

[20] = target: GlcNAc(b1-6)GalNAc
Summary of the method: as §1

[21] = target: GlcNAc6S(b1-3)Gal(b1-4)GlcNAc
Summary of the method: as §1

[22] = target: Kdn(a2-3)Gal(b1-3)GalNAc
Summary of the method: as §1

[23] = target: Kdn(a2-3)Gal(b1-3)GlcNAc
Summary of the method: as §1

[24] = target: Kdn(a2-3)Gal(b1-4)Glc
Summary of the method: as §1

[25] = target: Kdn(a2-3)Gal(b1-4)GlcNAc
Summary of the method: as §1

[26] = target: Kdn(a2-3)Gal(b1-4)[Fuc(a1-3)]GlcNAc
Summary of the method: as §1

[27] = target: Kdn(a2-6)Gal(b1-4)GlcNAc
Summary of the method: as §1

[28] = target: Man(a1-2)Man(a1-2)Man(a1-3)Man
Summary of the method: as §1

[29] = target: Man(a1-2)Man(a1-2)Man(a1-6)[Man(a1-3)]Man
Summary of the method: as §1

[30] = target: Man(a1-2)Man(a1-3)Man
Summary of the method: as §1

[31] = target: Man(a1-2)Man(a1-3)[Man(a1-2)Man(a1-6)]Man
Summary of the method: as §1

[32] = target: Man(a1-2)Man(a1-3)[Man(a1-2)Man(a1-6)]Man(a1-6)[Man(a1-2)Man(a1-2)Man(a1-3)]Man
Summary of the method: as §1

[33] = target: Man(a1-2)Man(a1-3)[Man(a1-2)Man(a1-6)]Man(a1-6)[Man(a1-2)Man(a1-2)Man(a1-3)]Man(b1-4)GlcNAc(b1-4)GlcNAc
Summary of the method: as §1

[34] = target: Man(a1-2)Man(a1-3)[Man(a1-6)]Man(a1-6)[Man(a1-2)Man(a1-3)]Man(b1-4)GlcNAc(b1-4)GlcNAc
Summary of the method: as §1

[35] = target: Man(a1-2)Man(a1-6)[Man(a1-3)]Man(a1-6)[Man(a1-2)Man(a1-2)Man(a1-3)]Man
Summary of the method: as §1

[36] = target: Man(a1-2)Man(a1-6)[Man(a1-3)]Man(a1-6)[Man(a1-2)Man(a1-2)Man(a1-3)]Man(b1-4)GlcNAc(b1-4)GlcNAc
Summary of the method: as §1

[37] = target: Man(a1-3)[Man(a1-6)]Man
Summary of the method: as §1

[38] = target: Man(a1-3)[Man(a1-6)]Man(a1-6)[Man(a1-2)Man(a1-3)]Man(b1-4)GlcNAc(b1-4)GlcNAc
Summary of the method: as §1

[39] = target: Man(a1-3)[Man(a1-6)]Man(a1-6)[Man(a1-3)]Man
Summary of the method: as §1

[40] = target: Man(a1-3)[Man(a1-6)]Man(a1-6)[Man(a1-3)]Man(b1-4)GlcNAc(b1-4)GlcNAc
Summary of the method: as §1

[41] = target: Man(a1-3)[Man(a1-6)]Man(b1-4)GlcNAc(b1-4)GlcNAc
Summary of the method: as §1

[42] = target: Man(a1-3)[Man(a1-6)]Man(b1-4)GlcNAc(b1-4)[Fuc(a1-6)]GlcNAc
Summary of the method: as §1

[43] = target: Man(a1-6)Man
Summary of the method: as §1

[44] = target: Man(b1-4)GlcNAc
Summary of the method: as §1

[45] = target: MurNAc(b1-4)GlcNAc
Summary of the method: as §1

B1: FGF1 (Homo sapiens), P05230 (protein)
chain: MAEGEITTFTALTEKFNLPPGNYKKPKLLYSNGGHFLRILPDGTVDGTRDRSDQHIQLQLSAESVGEVYIKSTETGQYLAMTDGLLYGSQTPNEECLFLERLEENHYNTYISKHAEKNWFVGLKKNGSCKRGPRTHYGQAILFLPLPASSED
- glycan array binding signal (z-score) [1]: -0.569
- glycan array binding signal (z-score) [2]: -0.462
- glycan array binding signal (z-score) [3]: -0.249
- glycan array binding signal (z-score) [4]: -0.422
- glycan array binding signal (z-score) [5]: -0.388
- glycan array binding signal (z-score) [6]: -0.585
- glycan array binding signal (z-score) [7]: -0.691
- glycan array binding signal (z-score) [8]: -0.34
- glycan array binding signal (z-score) [9]: -0.136
- glycan array binding signal (z-score) [10]: -0.837
- glycan array binding signal (z-score) [11]: -0.556
- glycan array binding signal (z-score) [12]: -0.611
- glycan array binding signal (z-score) [13]: -0.744
- glycan array binding signal (z-score) [14]: 0.385
- glycan array binding signal (z-score) [15]: -0.394
- glycan array binding signal (z-score) [16]: -0.273
- glycan array binding signal (z-score) [17]: -0.382
- glycan array binding signal (z-score) [18]: -0.724
- glycan array binding signal (z-score) [19]: -0.198
- glycan array binding signal (z-score) [20]: 0.927
- glycan array binding signal (z-score) [21]: -0.123
- glycan array binding signal (z-score) [22]: 1.33
- glycan array binding signal (z-score) [23]: -0.565
- glycan array binding signal (z-score) [24]: 3.53
- glycan array binding signal (z-score) [25]: -0.466
- glycan array binding signal (z-score) [26]: 2.37
- glycan array binding signal (z-score) [27]: 0.386
- glycan array binding signal (z-score) [28]: -0.833
- glycan array binding signal (z-score) [29]: 0.105
- glycan array binding signal (z-score) [30]: -0.898
- glycan array binding signal (z-score) [31]: -0.916
- glycan array binding signal (z-score) [32]: -0.522
- glycan array binding signal (z-score) [33]: 0.333
- glycan array binding signal (z-score) [34]: -0.86
- glycan array binding signal (z-score) [35]: -0.67
- glycan array binding signal (z-score) [36]: -0.455
- glycan array binding signal (z-score) [37]: 0.596
- glycan array binding signal (z-score) [38]: 0.039
- glycan array binding signal (z-score) [39]: 1.99
- glycan array binding signal (z-score) [40]: -0.428
- glycan array binding signal (z-score) [41]: -0.515
- glycan array binding signal (z-score) [42]: -0.724
- glycan array binding signal (z-score) [43]: 0.019
- glycan array binding signal (z-score) [44]: 0.383
- glycan array binding signal (z-score) [45]: -0.042
